PubChem BioAssay AID652243 – Drosophila RNAi Screening Center, 2013
Test: 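Knock-downs that decrease or increase androgen receptor reporter signal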 (primary screen). System: Drosophila S2R+ cells. Knock-down reagent: long dsRNA against Drosophila genes. Timing: 72 h (48 h, then 24 h hormone). Treatment: synthetic androgen R1881 at 10 nM for 24 h. Measured: 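Per-well raw luminescence of the androgen-driven firefly reporter and of the Renilla control, two replicates each, without normalisation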. Reading the numbers: firefly reporter light: higher = more light from androgen-responsive reporter; Renilla control light: higher = more constitutive control signal (cell number, transfection). Rule for the call: 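Hit when the log firefly-to-Renilla ratio dropped or increased by a fixed fold versus the mean of GFP or LacZ controls across duplicate plates; lowering cut given as 1.5 and as 3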. Calls: active = hit: reporter lowered or raised; inactive = no hit.
In all, the deposit lists about 24,000 reagents; shown is an unselected part of those that have a named target and a result. In the full data, 246 (1%) are marked active. 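Plates not normalised; calls are printed but the firefly/Renilla ratio behind them is not deposited; fold cut for lowering reported inconsistently.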 Raw values vary from plate to plate and are shown uncorrected. Reagents against one gene are numbered here. Not given: the amount of reagent.

Gene	reagent	firefly reporter light, replicate 1	firefly reporter light, replicate 2	Renilla control light, replicate 1	Renilla control light, replicate 2	outcome
CG4116	1	2.00e5	1.91e5	2.10e6	1.75e6	inactive
CG4116	2	4.44e5	5.66e5	1.49e6	1.49e6	inactive
CG15443	1	1.40e5	84161	1.01e6	9.51e5	inactive
PH4alphaSG2	1	1.75e5	2.71e5	2.15e6	3.03e6	inactive
CG3708	1	4.17e5	3.40e5	2.85e6	2.28e6	inactive
CG11865	1	1.71e5	2.46e5	1.94e6	2.32e6	inactive
CG11865	2	4.95e5	3.85e5	1.61e6	1.69e6	inactive
mRpS18C	1	1.71e5	1.94e5	2.17e6	3.16e6	inactive
mRpS18C	2	9.40e5	6.18e5	9.83e5	8.55e5	inactive
Iml1	1	7.63e5	1.53e6	7.46e5	2.19e6	inactive
orb	1	6.41e5	7.56e5	1.13e6	1.41e6	inactive
Gga	1	86106	91375	5.53e5	7.50e5	inactive
Gga	2	2.72e5	2.28e5	3.95e5	7.48e5	inactive
CycC	1	83053	73421	6.70e5	8.04e5	inactive
CycC	2					inactive
Duox	1	1.86e5	2.52e5	5.12e5	5.60e5	inactive
Zwilch	1	2.15e5	2.64e5	1.76e6	2.15e6	inactive
lncRNA:CR30055	1	3.37e5	7.23e5	4.81e5	1.09e6	inactive
lncRNA:CR30055	2	2.83e5	2.44e5	3.42e5	3.81e5	inactive
egg	1	7.92e5	9.83e5	1.38e6	1.54e6	inactive
egg	2	5.49e5	6.30e5	1.56e6	1.31e6	inactive
egg	3	4.34e5	1.12e6	1.06e6	1.32e6	inactive
Tom40	1	2.50e5	3.43e5	2.35e6	2.98e6	inactive
CG33003	1	4.56e5	9.70e5	9.57e5	1.42e6	inactive
CG33003	2	3.66e5	5.02e5	3.48e5	6.59e5	inactive
Ssl	1	2.05e5	2.46e5	1.48e6	1.66e6	inactive
Ssl	2	4.17e5	4.61e5	7.12e5	8.85e5	inactive
Semp1	1	1.57e5	1.76e5	2.09e6	2.36e6	inactive
CG44153	1	6.82e5	6.09e5	2.52e6	2.15e6	inactive
CG44153	2	1.85e5	1.46e5	9.33e5	9.72e5	inactive
CG44153	3	1.36e5	2.08e5	9.69e5	1.25e6	inactive
CG44153	4	1.33e5	1.66e5	9.47e5	1.20e6	inactive
CG44153	5	2.03e5	2.09e5	1.52e6	1.61e6	inactive
CG44153	6	1.95e5	1.68e5	1.12e6	1.23e6	inactive
CG44153	7	4.18e5	6.34e5	8.16e5	9.90e5	inactive
CG44153	8	7.03e5	8.50e5	1.65e6	1.77e6	inactive
Nep5	1	64277	92511	5.78e5	5.31e5	inactive
pira	1	5.30e5	4.74e5	3.85e6	3.89e6	inactive
apt	1	1.26e6	1.16e6	7.98e5	7.58e5	inactive
apt	2	4.21e5	5.07e5	6.52e5	6.68e5	inactive
TwdlS	1	1.47e5	1.24e5	1.51e6	1.61e6	inactive
CG6171	1	95036	64258	6.09e5	5.43e5	inactive
CG3618	1	26979	33235	3.09e5	3.08e5	inactive
CHKov2	1	64849	66805	5.31e5	5.91e5	inactive
CHKov2	2	3.74e5	4.06e5	1.09e6	1.35e6	inactive
Lon	1	57576	43535	3.88e5	2.27e5	inactive
Lon	2	3.02e5	3.74e5	1.03e6	9.92e5	inactive
Phax	1	3.92e5	3.04e5	2.38e6	2.19e6	inactive
cad	1	5.93e5	6.51e5	1.44e6	1.20e6	inactive
cad	2	6.14e5	5.08e5	1.55e6	1.17e6	inactive
CG2839	1	1.15e5	1.09e5	9.01e5	9.06e5	inactive
CG2839	2	4.48e5	4.27e5	1.37e6	1.34e6	inactive
CG2680	1	1.86e5	3.21e5	2.78e6	2.81e6	inactive
sowi	1	50991	30571	8.41e5	8.35e5	inactive
sowi	2	8.12e5	5.51e5	5.21e5	6.61e5	inactive
Cyp309a2	1	1.02e5	88399	7.91e5	6.54e5	inactive
Cyp309a2	2	8.27e5	6.24e5	1.34e6	1.49e6	inactive
Ythdf	1	1.08e5	1.40e5	1.64e6	2.17e6	inactive
Ythdf	2	1.84e5	1.83e5	2.96e6	2.59e6	inactive

Individual results from the entries so far.
Value of CG3618 in “outcome”: inactive
For “firefly reporter light, replicate 2”, PH4alphaSG2 shows 2.71e5
For “outcome”, CycC #2 has inactive
Under “Renilla control light, replicate 2”, CG11865 #2 has 1.69e6
Value for mRpS18C #2 under “Renilla control light, replicate 2”: 8.55e5
Under “outcome”, sowi #1 is entered as inactive
